Binding data for 1 substance are collected here from PMC12550800.

Sequences of proteins named here, by UniProt entry; tags and fusion partners are left off.
UniProt P05556: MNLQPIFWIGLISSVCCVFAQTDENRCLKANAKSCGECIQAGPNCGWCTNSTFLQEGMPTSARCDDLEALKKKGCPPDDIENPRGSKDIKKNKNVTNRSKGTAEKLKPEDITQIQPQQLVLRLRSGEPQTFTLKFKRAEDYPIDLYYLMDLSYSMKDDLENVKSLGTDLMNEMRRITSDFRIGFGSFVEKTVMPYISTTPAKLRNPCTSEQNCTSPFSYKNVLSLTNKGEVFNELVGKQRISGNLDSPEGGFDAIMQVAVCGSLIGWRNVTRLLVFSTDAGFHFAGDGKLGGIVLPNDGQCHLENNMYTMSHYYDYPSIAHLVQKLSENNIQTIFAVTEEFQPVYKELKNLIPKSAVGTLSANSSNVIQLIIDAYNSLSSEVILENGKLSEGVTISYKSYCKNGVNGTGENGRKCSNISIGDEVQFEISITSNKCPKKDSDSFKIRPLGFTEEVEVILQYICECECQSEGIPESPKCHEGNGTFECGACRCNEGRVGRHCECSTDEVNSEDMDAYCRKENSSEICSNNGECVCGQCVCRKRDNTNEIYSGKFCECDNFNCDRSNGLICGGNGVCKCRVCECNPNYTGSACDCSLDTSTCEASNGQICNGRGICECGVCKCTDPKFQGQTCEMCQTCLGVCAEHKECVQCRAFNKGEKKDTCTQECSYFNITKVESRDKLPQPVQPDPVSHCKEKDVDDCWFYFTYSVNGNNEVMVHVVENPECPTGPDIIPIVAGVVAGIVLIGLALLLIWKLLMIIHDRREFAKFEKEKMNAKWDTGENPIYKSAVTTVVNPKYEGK
UniProt Q99677: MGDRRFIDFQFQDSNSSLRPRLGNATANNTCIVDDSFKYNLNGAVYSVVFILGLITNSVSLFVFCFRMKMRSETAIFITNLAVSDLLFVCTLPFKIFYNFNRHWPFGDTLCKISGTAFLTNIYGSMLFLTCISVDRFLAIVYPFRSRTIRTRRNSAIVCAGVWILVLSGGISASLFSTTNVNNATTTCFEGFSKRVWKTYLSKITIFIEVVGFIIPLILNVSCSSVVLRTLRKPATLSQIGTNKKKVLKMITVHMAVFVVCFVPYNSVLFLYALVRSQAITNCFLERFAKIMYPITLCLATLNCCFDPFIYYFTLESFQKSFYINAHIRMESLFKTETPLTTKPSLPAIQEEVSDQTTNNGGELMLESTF

No constants are given. Whether binding was seen depends on the method and setting. Binding seen in cells or lysates may run through a third protein. Some results given as binding are weak or reduced against the parent protein; the word gives no strength.

The target in experiment [1] is integrin β1 (human (endogenous in MDA-MB-231 and BT549)) (UniProt P05556). The experiment in a line: co-IP; endogenous IP from BT549 lysates (Con, ST6GAL1-KO, ST6GAL1-Res cells) in NETN buffer (20 mM Tris-HCl pH 8.0, 100 mM NaCl, 1 mM EDTA, 0.5% Nonidet P-40), anti-integrin β1 antibody with protein-A/G PLUS beads, 4 °C; blotted for LPAR4, EGFR, integrin β1.
For experiment [2] the target is unchanged. As to the kind of experiment: co-IP; endogenous IP from MDA-MB-231 lysates (Con, ST6GAL1-KO, ST6GAL1-Res cells) in NETN buffer (20 mM Tris-HCl pH 8.0, 100 mM NaCl, 1 mM EDTA, 0.5% Nonidet P-40), anti-integrin β1 antibody with protein-A/G PLUS beads, 4 °C; blotted for LPAR4, EGFR, integrin β1.

In the case of “LPAR4 (from UniProt Q99677 1-370) (receptor)”, the binding result in experiment [1] and in experiment [2] was “binds” each time.
